This passage reports binding results from article PMC6697986.

Assay [1] concerns the target T1, Large tumor suppressor 1 (Lats1) in T47D cells (UniProt O95835).
T1 sequence: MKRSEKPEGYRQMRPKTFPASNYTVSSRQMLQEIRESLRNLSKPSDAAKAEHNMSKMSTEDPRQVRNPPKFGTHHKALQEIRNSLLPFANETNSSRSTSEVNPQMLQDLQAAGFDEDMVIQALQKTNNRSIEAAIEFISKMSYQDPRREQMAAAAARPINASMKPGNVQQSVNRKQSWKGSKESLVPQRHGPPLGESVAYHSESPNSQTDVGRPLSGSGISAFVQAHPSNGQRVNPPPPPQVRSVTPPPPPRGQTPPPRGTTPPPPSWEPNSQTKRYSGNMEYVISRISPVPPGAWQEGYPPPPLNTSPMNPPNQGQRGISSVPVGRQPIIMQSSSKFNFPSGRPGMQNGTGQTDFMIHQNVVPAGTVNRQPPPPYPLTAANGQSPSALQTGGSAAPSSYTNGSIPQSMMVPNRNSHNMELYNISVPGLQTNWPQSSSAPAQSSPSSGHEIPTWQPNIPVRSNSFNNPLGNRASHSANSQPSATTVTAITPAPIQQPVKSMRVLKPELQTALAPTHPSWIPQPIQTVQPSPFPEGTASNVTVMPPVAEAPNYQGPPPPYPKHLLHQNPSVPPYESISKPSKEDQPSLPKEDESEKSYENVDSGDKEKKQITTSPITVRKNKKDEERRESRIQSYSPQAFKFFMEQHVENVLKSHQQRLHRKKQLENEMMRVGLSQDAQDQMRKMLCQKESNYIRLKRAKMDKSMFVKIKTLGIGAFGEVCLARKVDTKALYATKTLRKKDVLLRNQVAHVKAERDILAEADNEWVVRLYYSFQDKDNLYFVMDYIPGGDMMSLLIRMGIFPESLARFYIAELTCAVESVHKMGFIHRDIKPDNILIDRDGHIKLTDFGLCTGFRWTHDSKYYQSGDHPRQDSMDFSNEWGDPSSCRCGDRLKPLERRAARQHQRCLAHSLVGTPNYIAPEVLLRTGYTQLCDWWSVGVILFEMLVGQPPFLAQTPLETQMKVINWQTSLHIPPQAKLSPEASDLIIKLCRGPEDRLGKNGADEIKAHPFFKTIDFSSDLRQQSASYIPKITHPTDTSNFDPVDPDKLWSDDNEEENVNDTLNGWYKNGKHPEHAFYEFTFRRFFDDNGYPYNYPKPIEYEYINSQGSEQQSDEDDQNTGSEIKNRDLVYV
The assay is described as follows: co-IP; Thermo Scientific Pierce Co-IP kit; extracts of T47D or BT549 cells in lysis buffer (150 mM NaCl, 0.5% NP-40, Tris-HCl pH 8.0, glycerol); IP with anti-Flag or anti-CRABP2 antibody or IgG; Western blot with anti-CRABP2 or anti-Lats1.

In assay [2] the target is T2, Large tumor suppressor 1 (Lats1) in BT549 cells (UniProt O95835).
T2 sequence: T1 sequence
The assay is described as above.

No constants are given. Whether binding was seen depends on the method and setting. In cells and extracts the contact can be indirect. Some entries that bind do so weakly or less than the wild type.

B1: Cellular retinoic acid binding protein 2 (CRABP2), endogenous in T47D cells (protein, UniProt P29373 1-138)
chain: MPNFSGNWKIIRSENFEELLKVLGVNVMLRKIAVAAASKPAVEIKQEGDTFYIKTSTTVRTTEINFKVGEEFEEQTVDGRPCKSLVKWESENKMVCEQKLLKGEGPKTSWTRELTNDGELILTMTADDVVCTRVYVRE
B1: the binding result in assay [1] is recorded as “binds”.

B2: Cellular retinoic acid binding protein 2 (CRABP2), exogenous in BT549 cells (protein, UniProt P29373 1-138)
chain: B1 chain
Regarding B2, in assay [2], the binding result is on record as “binds”.
